PubChem BioAssay AID1508597, Cure First – 2020
Assay: 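Knock-downs altering ovarian cancer cell survival with or without PARP inhibitor rucaparib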 (primary screen). Cell system: human ovarian carcinoma lines grown from tumours: OCI-P5x (papillary serous) and OCI-C5x (clear cell). Reagents: siRNA pool against human genes, 1.25 pmol siRNA per well. Duration: 72 h or 96 h, depending on the cell culture. Treatment: rucaparib 20 µM (about IC30) or vehicle, present until read-out. Read-out: 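ATP luminescence measured at 72 or 96 h according to the culture, then normalised and expressed as percent viability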. Direction: viability, normalised: higher = more viable cells remaining. Active means: 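Active when normalised viability falls below 80 percent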. Calls: active = viability under 80%; inactive = viability 80% or more.
The whole screen tested about 2,100 reagents; this is a part drawn at random. 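Calls flag viability under 80% in either arm, not effects specific to rucaparib; the reference for percent is not stated.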 Some reagents were tested in more than one well and are listed for each. Not stated in the record: the 100% reference.

no.	target	rucaparib or vehicle	cell line	technical replicate	viability, normalised (%)	Call
1	TRIB1	Rucaparib	OCI-C5x (clear cell)	1	63.9	active
2	TRIB1	Rucaparib	OCI-C5x (clear cell)	1	41.1	active
3	TRIB1	Rucaparib	OCI-C5x (clear cell)	2	54.8	active
4	TRIB1	Rucaparib	OCI-C5x (clear cell)	2	41.9	active
5	TRIB1	Rucaparib	OCI-C5x (clear cell)	3	43.5	active
6	TRIB1	Rucaparib	OCI-C5x (clear cell)	3	29.5	active
7	TRIB1	Rucaparib	OCI-P5x (serous)	1	87.1	inactive
8	TRIB1	Rucaparib	OCI-P5x (serous)	1	67.4	active
9	TRIB1	Rucaparib	OCI-P5x (serous)	2	66.7	active
10	TRIB1	Rucaparib	OCI-P5x (serous)	2	66.5	active
11	TRIB1	Rucaparib	OCI-P5x (serous)	3	71.2	active
12	TRIB1	Rucaparib	OCI-P5x (serous)	3	92.3	inactive
13	TRIB1	Vehicle	OCI-C5x (clear cell)	1	48.6	active
14	TRIB1	Vehicle	OCI-C5x (clear cell)	1	47.3	active
15	TRIB1	Vehicle	OCI-C5x (clear cell)	2	46.7	active
16	TRIB1	Vehicle	OCI-C5x (clear cell)	2	43.4	active
17	TRIB1	Vehicle	OCI-C5x (clear cell)	3	29.5	active
18	TRIB1	Vehicle	OCI-C5x (clear cell)	3	40.4	active
19	TRIB1	Vehicle	OCI-P5x (serous)	1	64.8	active
20	TRIB1	Vehicle	OCI-P5x (serous)	1	71.5	active
21	TRIB1	Vehicle	OCI-P5x (serous)	2	85	inactive
22	TRIB1	Vehicle	OCI-P5x (serous)	2	63.2	active
23	TRIB1	Vehicle	OCI-P5x (serous)	3	74	active
24	TRIB1	Vehicle	OCI-P5x (serous)	3	64.5	active
25	BCL2L1	Rucaparib	OCI-C5x (clear cell)	1	15.2	active
26	BCL2L1	Rucaparib	OCI-C5x (clear cell)	1	20	active
27	BCL2L1	Rucaparib	OCI-C5x (clear cell)	2	13.8	active
28	BCL2L1	Rucaparib	OCI-C5x (clear cell)	2	20.5	active
29	BCL2L1	Rucaparib	OCI-C5x (clear cell)	3	19.3	active
30	BCL2L1	Rucaparib	OCI-C5x (clear cell)	3	13	active
31	BCL2L1	Rucaparib	OCI-P5x (serous)	1	67.3	active
32	BCL2L1	Rucaparib	OCI-P5x (serous)	1	73	active
33	BCL2L1	Rucaparib	OCI-P5x (serous)	2	80.9	inactive
34	BCL2L1	Rucaparib	OCI-P5x (serous)	2	79.7	active
35	BCL2L1	Rucaparib	OCI-P5x (serous)	3	66.7	active
36	BCL2L1	Rucaparib	OCI-P5x (serous)	3	89.5	inactive
37	BCL2L1	Vehicle	OCI-C5x (clear cell)	1	12.4	active
38	BCL2L1	Vehicle	OCI-C5x (clear cell)	1	33.4	active
39	BCL2L1	Vehicle	OCI-C5x (clear cell)	2	34.1	active
40	BCL2L1	Vehicle	OCI-C5x (clear cell)	2	16.7	active
41	BCL2L1	Vehicle	OCI-C5x (clear cell)	3	21.8	active
42	BCL2L1	Vehicle	OCI-C5x (clear cell)	3	31.6	active
43	BCL2L1	Vehicle	OCI-P5x (serous)	1	72.9	active
44	BCL2L1	Vehicle	OCI-P5x (serous)	1	72.2	active
45	BCL2L1	Vehicle	OCI-P5x (serous)	2	59.7	active
46	BCL2L1	Vehicle	OCI-P5x (serous)	2	67.8	active
47	BCL2L1	Vehicle	OCI-P5x (serous)	3	56.3	active
48	BCL2L1	Vehicle	OCI-P5x (serous)	3	71.1	active
49	SIRT6	Rucaparib	OCI-C5x (clear cell)	1	44.5	active
50	SIRT6	Rucaparib	OCI-C5x (clear cell)	1	72.7	active
51	SIRT6	Rucaparib	OCI-C5x (clear cell)	2	42.4	active
52	SIRT6	Rucaparib	OCI-C5x (clear cell)	2	77.9	active
53	SIRT6	Rucaparib	OCI-C5x (clear cell)	3	48.4	active
54	SIRT6	Rucaparib	OCI-C5x (clear cell)	3	35.9	active
55	SIRT6	Rucaparib	OCI-P5x (serous)	1	53.6	active
56	SIRT6	Rucaparib	OCI-P5x (serous)	1	89.3	inactive
57	SIRT6	Rucaparib	OCI-P5x (serous)	2	64.4	active
58	SIRT6	Rucaparib	OCI-P5x (serous)	2	101	inactive
59	SIRT6	Rucaparib	OCI-P5x (serous)	3	50.1	active
60	SIRT6	Rucaparib	OCI-P5x (serous)	3	86.8	inactive
61	SIRT6	Vehicle	OCI-C5x (clear cell)	1	42.2	active
62	SIRT6	Vehicle	OCI-C5x (clear cell)	1	62.5	active
63	SIRT6	Vehicle	OCI-C5x (clear cell)	2	28	active
64	SIRT6	Vehicle	OCI-C5x (clear cell)	2	66.5	active
65	SIRT6	Vehicle	OCI-C5x (clear cell)	3	43.7	active
66	SIRT6	Vehicle	OCI-C5x (clear cell)	3	53	active
67	SIRT6	Vehicle	OCI-P5x (serous)	1	55.5	active
68	SIRT6	Vehicle	OCI-P5x (serous)	1	105	inactive
69	SIRT6	Vehicle	OCI-P5x (serous)	2	67.6	active
70	SIRT6	Vehicle	OCI-P5x (serous)	2	77.8	active
71	SIRT6	Vehicle	OCI-P5x (serous)	3	85.5	inactive
72	SIRT6	Vehicle	OCI-P5x (serous)	3	78.4	active
